One test addresses T1, Flag-SUV39H1 (UniProt O43463).
T1 sequence: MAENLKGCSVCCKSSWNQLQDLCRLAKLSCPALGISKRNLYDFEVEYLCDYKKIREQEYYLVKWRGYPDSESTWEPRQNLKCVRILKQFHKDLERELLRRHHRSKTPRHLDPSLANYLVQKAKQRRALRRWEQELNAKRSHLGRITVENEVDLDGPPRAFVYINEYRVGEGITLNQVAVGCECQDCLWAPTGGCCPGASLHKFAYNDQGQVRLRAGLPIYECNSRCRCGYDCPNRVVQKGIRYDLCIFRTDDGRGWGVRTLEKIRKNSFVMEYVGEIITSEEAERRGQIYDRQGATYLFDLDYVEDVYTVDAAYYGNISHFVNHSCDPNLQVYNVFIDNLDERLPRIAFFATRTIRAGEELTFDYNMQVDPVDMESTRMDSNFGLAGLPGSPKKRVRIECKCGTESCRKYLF
Kind of test: pull-down; Flag-SUV39H1 immobilised on Flag M2 Affinity Gel, incubated with purified Dicer 4 hours at 4°C, washed with BC100 buffer six times; Western blot; both purified. A general note: A western blot detects proteins with antibodies after separation by electrophoresis.

Protein sequences, listed by entry. Tags and fused reporters are not part of them.
UniProt Q9UPY3: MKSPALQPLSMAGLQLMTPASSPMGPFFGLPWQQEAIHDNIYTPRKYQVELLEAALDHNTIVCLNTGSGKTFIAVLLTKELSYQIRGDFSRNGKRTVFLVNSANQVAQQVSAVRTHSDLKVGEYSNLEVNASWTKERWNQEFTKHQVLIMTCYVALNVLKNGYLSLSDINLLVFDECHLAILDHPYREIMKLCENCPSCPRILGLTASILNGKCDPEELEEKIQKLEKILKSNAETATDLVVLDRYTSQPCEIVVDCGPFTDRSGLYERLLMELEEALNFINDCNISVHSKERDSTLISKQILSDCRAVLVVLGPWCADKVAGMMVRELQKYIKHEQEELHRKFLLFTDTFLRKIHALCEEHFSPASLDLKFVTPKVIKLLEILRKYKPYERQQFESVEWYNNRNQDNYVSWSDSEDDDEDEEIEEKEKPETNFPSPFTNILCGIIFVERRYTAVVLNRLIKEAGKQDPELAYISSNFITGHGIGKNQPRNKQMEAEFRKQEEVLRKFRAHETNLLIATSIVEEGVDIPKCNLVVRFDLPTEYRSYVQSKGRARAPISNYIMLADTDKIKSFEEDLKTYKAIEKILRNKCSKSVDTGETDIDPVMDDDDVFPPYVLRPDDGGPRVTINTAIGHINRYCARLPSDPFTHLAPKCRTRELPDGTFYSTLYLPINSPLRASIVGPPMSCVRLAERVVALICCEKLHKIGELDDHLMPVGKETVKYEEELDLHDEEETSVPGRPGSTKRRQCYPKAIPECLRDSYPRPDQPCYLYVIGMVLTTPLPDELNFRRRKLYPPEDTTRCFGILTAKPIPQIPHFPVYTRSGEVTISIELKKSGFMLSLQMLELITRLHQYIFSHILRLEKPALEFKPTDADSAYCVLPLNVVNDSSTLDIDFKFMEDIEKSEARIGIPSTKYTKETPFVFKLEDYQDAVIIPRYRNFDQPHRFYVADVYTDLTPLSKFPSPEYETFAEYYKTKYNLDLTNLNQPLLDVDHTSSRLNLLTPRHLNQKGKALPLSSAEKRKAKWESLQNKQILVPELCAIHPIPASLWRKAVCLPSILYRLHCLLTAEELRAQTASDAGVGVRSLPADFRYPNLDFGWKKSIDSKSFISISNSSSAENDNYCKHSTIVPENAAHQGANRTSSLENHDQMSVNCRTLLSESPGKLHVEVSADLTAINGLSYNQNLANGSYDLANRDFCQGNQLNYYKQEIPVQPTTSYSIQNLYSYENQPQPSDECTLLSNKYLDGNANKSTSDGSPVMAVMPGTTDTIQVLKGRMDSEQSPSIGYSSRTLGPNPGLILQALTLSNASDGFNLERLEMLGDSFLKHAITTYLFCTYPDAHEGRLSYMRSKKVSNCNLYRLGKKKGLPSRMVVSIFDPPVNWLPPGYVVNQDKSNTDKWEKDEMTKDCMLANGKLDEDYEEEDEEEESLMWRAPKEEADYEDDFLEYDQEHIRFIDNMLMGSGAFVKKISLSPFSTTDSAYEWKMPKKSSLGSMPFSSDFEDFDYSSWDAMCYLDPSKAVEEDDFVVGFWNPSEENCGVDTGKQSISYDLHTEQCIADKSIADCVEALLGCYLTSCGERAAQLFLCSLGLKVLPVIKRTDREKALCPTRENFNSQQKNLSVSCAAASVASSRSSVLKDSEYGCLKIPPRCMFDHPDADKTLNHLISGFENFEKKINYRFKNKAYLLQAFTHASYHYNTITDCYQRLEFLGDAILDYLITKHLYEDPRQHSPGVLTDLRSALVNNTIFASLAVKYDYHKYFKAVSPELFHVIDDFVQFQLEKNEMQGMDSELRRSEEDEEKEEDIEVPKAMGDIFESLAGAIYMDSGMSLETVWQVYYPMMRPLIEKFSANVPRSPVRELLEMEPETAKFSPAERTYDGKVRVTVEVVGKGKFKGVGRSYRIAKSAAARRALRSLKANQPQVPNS

The target of a further test is mouse p53 WT (mouse) (UniProt P02340). Kind of test: co-IP; H1299 cotransfected with expression vectors; lysate in BC100 buffer; Flag M2 Affinity Gel or Streptavidin beads or antibody; Western blot.
The target in test [1] is mp53-3KR (K➔R mutation at K117, K161, and K162) (mouse) (UniProt P02340). Described as above.
Test [2] has as its target T2, endogenous SUV39H1 (human (endogenous in HCT116)) (UniProt O43463).
T2 sequence: T1 sequence
Kind of test: co-IP; endogenous Dicer and SUV39H1, HCT116 lysate; Western blot.

No constants are given. Whether binding was seen depends on the method and setting. For some of these results: In cells and extracts the contact can be indirect. Some results given as binding are weak or reduced against the parent protein; the word gives no strength. For some of these results: Sequences can lack the tags named with a protein.

For “HA-tagged Dicer, from HEK293 (from UniProt Q9UPY3 1-1922)”, the binding entry with Flag-SUV39H1 was “binds”.
For the substance “HA-tagged Dicer (full length, amino acids 1 to 1922), expressed in H1299 (from UniProt Q9UPY3 1-1922)”, the binding result (in the test with mouse p53 WT (mouse); in test [1]) was “binds” in each case.
In the case of “Dicer (endogenous) (from UniProt Q9UPY3 1-1922)”, the binding result in test [2] was “binds”.
